Measurements reported in PubChem BioAssay AID1259405 (NCATS, 2018).
Aim: 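Mouse-designed siRNAs used to find CHO productivity engineering targets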 (primary screen). System: Chinese hamster CHO-K1 ovary cells with stable secreted eGFP expression. Reagent: single siRNA against mouse genes, 0.8 pmol siRNA per well (2 µl of 400 nM stock). Duration: 3 days. Detection: 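Per-well intracellular GFP measured by laser scanning cytometry, plus viability from ATP luminescence, each relative to plate median of non-targeting control wells, in %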. Direction: GFP, % of control: higher = more GFP per well, higher productivity; viability (ATP), % of control: higher = more viable cells (more ATP). Call rule: 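a knock-down is called active if GFP reaches 120% or more of non-targeting control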.
In all, the deposit lists about 50,000 reagents; shown is a part drawn at random. About 4,000 of all reagents (8%) count as active. 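Mouse siRNA library applied to hamster cells; one well for each siRNA.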 Reagents against one gene are numbered here.

Snrpb (small nuclear ribonucleoprotein B) #1 | GFP, % of control: 65.4; viability (ATP), % of control: 105; outcome: inactive
Snrpb (small nuclear ribonucleoprotein B) #2 | GFP, % of control: 78.5; viability (ATP), % of control: 82.5; outcome: inactive
Snrpb (small nuclear ribonucleoprotein B) #3 | GFP, % of control: 67.6; viability (ATP), % of control: 42.8; outcome: inactive
Sprr1a (small proline-rich protein 1A) #1 | GFP, % of control: 126; viability (ATP), % of control: 85.8; outcome: active
Sprr1a (small proline-rich protein 1A) #2 | GFP, % of control: 53.5; viability (ATP), % of control: 63; outcome: inactive
Plxna1 (plexin A1) #1 | GFP, % of control: 81.3; viability (ATP), % of control: 84.5; outcome: inactive
Plxna1 (plexin A1) #2 | GFP, % of control: 105; viability (ATP), % of control: 81.4; outcome: inactive
Plxna1 (plexin A1) #3 | GFP, % of control: 78.7; viability (ATP), % of control: 81.6; outcome: inactive
Socs7 (suppressor of cytokine signaling 7) #1 | GFP, % of control: 73.8; viability (ATP), % of control: 77.5; outcome: inactive
Socs7 (suppressor of cytokine signaling 7) #2 | GFP, % of control: 148; viability (ATP), % of control: 60; outcome: active
Socs7 (suppressor of cytokine signaling 7) #3 | GFP, % of control: 68; viability (ATP), % of control: 54; outcome: inactive
Naxe (NAD(P)HX epimerase) #1 | GFP, % of control: 42.6; viability (ATP), % of control: 44; outcome: inactive
Naxe (NAD(P)HX epimerase) #2 | GFP, % of control: 51.5; viability (ATP), % of control: 70.3; outcome: inactive
Naxe (NAD(P)HX epimerase) #3 | GFP, % of control: 61.7; viability (ATP), % of control: 33.4; outcome: inactive
Defa20 (defensin, alpha, 20) #1 | GFP, % of control: 56; viability (ATP), % of control: 61.2; outcome: inactive
Defa20 (defensin, alpha, 20) #2 | GFP, % of control: 64.8; viability (ATP), % of control: 107; outcome: inactive
Defa20 (defensin, alpha, 20) #3 | GFP, % of control: 50.3; viability (ATP), % of control: 86.4; outcome: inactive
Anxa6 (annexin A6) #1 | GFP, % of control: 103; viability (ATP), % of control: 107; outcome: inactive
Anxa6 (annexin A6) #2 | GFP, % of control: 66.8; viability (ATP), % of control: 84.7; outcome: inactive
Anxa6 (annexin A6) #3 | GFP, % of control: 60.7; viability (ATP), % of control: 77.3; outcome: inactive
Tmsb10 (thymosin beta 10) #1 | GFP, % of control: 74.4; viability (ATP), % of control: 74.6; outcome: inactive
Tmsb10 (thymosin beta 10) #2 | GFP, % of control: 88.1; viability (ATP), % of control: 74.5; outcome: inactive
Tmsb10 (thymosin beta 10) #3 | GFP, % of control: 116; viability (ATP), % of control: 105; outcome: inactive
Hmbs (hydroxymethylbilane synthase) #1 | GFP, % of control: 77.8; viability (ATP), % of control: 64.8; outcome: inactive
Hmbs (hydroxymethylbilane synthase) #2 | GFP, % of control: 108; viability (ATP), % of control: 92; outcome: inactive
Hmbs (hydroxymethylbilane synthase) #3 | GFP, % of control: 72; viability (ATP), % of control: 87.8; outcome: inactive
Ifngr1 (interferon gamma receptor 1) #1 | GFP, % of control: 80.1; viability (ATP), % of control: 87.4; outcome: inactive
Ifngr1 (interferon gamma receptor 1) #2 | GFP, % of control: 71.3; viability (ATP), % of control: 77; outcome: inactive
Ifngr1 (interferon gamma receptor 1) #3 | GFP, % of control: 89.9; viability (ATP), % of control: 72.6; outcome: inactive
Dhrs1 (dehydrogenase/reductase 1) #1 | GFP, % of control: 100; viability (ATP), % of control: 92.4; outcome: inactive
Dhrs1 (dehydrogenase/reductase 1) #2 | GFP, % of control: 64.8; viability (ATP), % of control: 56.5; outcome: inactive
Dhrs1 (dehydrogenase/reductase 1) #3 | GFP, % of control: 71.6; viability (ATP), % of control: 84.4; outcome: inactive
Nmur2 (neuromedin U receptor 2) #1 | GFP, % of control: 80.5; viability (ATP), % of control: 65.8; outcome: inactive
Nmur2 (neuromedin U receptor 2) #2 | GFP, % of control: 72.3; viability (ATP), % of control: 56.3; outcome: inactive
Nmur2 (neuromedin U receptor 2) #3 | GFP, % of control: 44.9; viability (ATP), % of control: 53.3; outcome: inactive
Or9i16 (olfactory receptor family 9 subfamily I member 16) #1 | GFP, % of control: 95.6; viability (ATP), % of control: 106; outcome: inactive
Or9i16 (olfactory receptor family 9 subfamily I member 16) #2 | GFP, % of control: 81.9; viability (ATP), % of control: 86.5; outcome: inactive
Or9i16 (olfactory receptor family 9 subfamily I member 16) #3 | GFP, % of control: 97.6; viability (ATP), % of control: 97; outcome: inactive
Kiss1r (KISS1 receptor) #1 | GFP, % of control: 124; viability (ATP), % of control: 104; outcome: active
Kiss1r (KISS1 receptor) #2 | GFP, % of control: 56.9; viability (ATP), % of control: 58.1; outcome: inactive
Kiss1r (KISS1 receptor) #3 | GFP, % of control: 86.1; viability (ATP), % of control: 82.4; outcome: inactive

In a second layout: results already given
| gene knocked down | reagent | GFP, % of control | viability (ATP), % of control | outcome |
| --- | --- | --- | --- | --- |
| Defa20 (defensin, alpha, 20) | 3 | 50.3 | 86.4 | inactive |
| Anxa6 (annexin A6) | 1 | 103 | 107 | inactive |
